{"sequences": {"note": "Chains of the proteins cited; added tags and fusions are not shown.", "UniProt Q03164, whole entry, looked up": "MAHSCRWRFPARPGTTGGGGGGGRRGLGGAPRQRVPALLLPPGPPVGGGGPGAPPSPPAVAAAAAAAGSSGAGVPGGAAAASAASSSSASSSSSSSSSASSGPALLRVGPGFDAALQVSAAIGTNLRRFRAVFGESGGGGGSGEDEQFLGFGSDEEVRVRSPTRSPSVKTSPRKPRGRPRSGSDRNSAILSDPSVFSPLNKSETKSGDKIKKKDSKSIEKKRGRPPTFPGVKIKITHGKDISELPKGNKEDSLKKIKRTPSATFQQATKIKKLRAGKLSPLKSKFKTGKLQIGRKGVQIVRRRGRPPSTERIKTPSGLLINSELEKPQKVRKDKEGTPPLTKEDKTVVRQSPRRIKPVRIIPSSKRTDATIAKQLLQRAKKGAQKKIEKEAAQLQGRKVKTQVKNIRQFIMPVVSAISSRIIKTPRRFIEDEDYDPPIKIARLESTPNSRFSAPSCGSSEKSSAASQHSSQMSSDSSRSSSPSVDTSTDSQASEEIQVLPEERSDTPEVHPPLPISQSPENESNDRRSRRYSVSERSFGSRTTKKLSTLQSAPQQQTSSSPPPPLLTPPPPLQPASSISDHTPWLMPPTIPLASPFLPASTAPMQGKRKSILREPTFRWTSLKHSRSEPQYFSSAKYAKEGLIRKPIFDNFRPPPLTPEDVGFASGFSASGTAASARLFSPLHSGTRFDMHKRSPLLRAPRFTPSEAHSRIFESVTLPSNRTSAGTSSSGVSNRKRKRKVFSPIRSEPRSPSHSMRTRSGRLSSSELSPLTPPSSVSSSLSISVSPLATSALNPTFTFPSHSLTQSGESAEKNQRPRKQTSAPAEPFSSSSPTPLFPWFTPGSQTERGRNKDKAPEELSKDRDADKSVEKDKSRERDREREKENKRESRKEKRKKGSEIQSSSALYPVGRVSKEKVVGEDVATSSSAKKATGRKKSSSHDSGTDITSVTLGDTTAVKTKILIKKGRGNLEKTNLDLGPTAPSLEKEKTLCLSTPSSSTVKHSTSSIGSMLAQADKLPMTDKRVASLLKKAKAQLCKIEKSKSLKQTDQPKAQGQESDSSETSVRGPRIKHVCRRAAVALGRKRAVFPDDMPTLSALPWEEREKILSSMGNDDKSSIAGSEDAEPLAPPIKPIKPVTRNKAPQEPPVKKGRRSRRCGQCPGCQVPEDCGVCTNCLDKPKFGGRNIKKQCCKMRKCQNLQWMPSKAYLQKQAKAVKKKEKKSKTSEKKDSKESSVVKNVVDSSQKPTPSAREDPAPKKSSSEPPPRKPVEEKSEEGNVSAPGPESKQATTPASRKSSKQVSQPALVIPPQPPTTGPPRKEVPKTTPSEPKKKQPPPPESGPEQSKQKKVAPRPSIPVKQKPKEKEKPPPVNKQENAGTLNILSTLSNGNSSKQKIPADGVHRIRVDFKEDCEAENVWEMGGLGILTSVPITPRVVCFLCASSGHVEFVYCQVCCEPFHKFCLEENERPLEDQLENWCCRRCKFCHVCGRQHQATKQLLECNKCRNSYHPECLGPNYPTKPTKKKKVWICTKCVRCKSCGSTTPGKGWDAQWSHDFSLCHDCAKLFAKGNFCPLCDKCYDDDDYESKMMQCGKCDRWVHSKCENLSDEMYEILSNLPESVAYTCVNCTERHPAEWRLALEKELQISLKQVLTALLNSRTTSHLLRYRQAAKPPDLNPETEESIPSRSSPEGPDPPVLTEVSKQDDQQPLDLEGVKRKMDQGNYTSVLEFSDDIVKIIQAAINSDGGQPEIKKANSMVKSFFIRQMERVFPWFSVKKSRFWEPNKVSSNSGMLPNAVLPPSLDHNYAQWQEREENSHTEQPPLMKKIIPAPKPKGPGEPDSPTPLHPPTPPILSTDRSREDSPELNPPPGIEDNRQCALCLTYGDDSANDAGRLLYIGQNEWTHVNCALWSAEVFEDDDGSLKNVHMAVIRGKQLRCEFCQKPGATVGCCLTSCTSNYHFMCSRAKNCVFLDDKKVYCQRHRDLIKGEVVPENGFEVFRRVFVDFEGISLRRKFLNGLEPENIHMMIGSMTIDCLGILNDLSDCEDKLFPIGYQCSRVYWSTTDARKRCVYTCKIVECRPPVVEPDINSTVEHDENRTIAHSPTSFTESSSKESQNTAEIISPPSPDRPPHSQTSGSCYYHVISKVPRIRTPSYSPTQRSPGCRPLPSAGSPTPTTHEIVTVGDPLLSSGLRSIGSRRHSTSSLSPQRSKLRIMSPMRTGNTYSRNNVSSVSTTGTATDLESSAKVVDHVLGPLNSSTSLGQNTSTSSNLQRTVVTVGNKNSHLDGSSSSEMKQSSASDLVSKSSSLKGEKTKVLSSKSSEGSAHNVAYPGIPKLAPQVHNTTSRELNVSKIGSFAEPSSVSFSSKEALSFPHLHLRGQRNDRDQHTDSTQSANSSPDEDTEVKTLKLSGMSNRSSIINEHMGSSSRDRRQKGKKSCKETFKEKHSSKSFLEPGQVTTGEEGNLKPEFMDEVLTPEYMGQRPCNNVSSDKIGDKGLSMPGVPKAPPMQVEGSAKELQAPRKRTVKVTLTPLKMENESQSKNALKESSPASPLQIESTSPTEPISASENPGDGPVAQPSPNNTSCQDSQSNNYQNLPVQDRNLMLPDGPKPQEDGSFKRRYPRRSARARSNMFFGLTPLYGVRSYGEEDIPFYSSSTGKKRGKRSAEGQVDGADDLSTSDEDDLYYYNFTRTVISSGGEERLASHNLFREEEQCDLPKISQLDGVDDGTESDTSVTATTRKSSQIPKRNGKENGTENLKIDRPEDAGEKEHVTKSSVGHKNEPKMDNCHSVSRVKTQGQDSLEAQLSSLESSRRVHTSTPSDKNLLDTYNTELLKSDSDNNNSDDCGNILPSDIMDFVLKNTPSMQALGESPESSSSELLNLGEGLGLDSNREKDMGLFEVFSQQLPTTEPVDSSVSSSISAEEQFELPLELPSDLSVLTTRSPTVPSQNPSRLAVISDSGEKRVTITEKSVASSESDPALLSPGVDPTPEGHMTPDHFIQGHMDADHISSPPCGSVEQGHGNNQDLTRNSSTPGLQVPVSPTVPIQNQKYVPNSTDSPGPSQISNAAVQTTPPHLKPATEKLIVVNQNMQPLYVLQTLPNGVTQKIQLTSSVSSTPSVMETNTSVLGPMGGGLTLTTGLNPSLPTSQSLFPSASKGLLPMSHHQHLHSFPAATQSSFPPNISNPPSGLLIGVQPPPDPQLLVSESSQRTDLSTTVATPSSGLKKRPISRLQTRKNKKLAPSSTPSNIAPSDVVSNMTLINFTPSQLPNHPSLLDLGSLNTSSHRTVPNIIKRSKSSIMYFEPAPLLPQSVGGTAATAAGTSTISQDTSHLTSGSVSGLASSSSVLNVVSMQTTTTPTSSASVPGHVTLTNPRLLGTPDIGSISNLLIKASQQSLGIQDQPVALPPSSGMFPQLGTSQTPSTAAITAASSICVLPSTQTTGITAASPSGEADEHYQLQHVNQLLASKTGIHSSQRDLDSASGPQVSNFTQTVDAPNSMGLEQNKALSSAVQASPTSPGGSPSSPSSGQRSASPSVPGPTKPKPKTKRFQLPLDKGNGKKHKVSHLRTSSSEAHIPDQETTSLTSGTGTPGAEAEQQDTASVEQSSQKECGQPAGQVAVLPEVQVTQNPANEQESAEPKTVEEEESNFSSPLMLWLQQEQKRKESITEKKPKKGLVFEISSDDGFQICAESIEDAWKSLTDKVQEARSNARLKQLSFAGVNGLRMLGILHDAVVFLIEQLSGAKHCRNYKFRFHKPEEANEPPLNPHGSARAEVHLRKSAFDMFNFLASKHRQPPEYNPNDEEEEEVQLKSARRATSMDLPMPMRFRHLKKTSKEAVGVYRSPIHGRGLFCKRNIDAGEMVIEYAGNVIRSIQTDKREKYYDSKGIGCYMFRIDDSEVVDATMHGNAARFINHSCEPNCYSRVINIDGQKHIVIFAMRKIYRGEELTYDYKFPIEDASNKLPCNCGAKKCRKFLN"}, "source": "PubChem BioAssay AID2662", "about": "(National Center for Advancing Translational Sciences (NCATS), 2010)", "note": "Hit rate of the full screen: of about 290,000 compounds, about 110 (0.038%) were called active. Inconclusive results, whose numbers are uncertain, are shown with a selection of clear calls. The call rests on the fitted dose curve; in most records, active means well fitted inhibition curve with a large enough effect in the polarisation, with a control signal flat (not every such curve was filed as active); inconclusive means small, poorly fitted or top-dose-only effect, or effect the other way, or a change in a side signal; inactive means no such curve, though single readings can be large or run the other way; the % refers to the polarisation. Potencies beside an inconclusive call are fits to weak or partial responses and may not hold up. A note “side channel” means that the fit belongs to a control or component signal, not to the main read-out. Potency means the concentration at half of the fitted maximal effect.", "data": [{"molecular_target": "Histone-lysine N-methyltransferase 2A (Homo sapiens) (UniProt Q03164)", "assay": "qHTS Fluorescence Polarization Assay for Inhibitors of MLL CXXC domain - DNA interaction", "details": "MLL-CXXC / FITC-HOXA9 DNA fluorescence polarization; activity change, negative = inhibition: at 115 µM (top of the series)", "method_in_brief": "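Purified MLL-CXXC (added from a 7 uM solution) was preincubated 5 min at ambient with pinned compounds in 50 mM Tris-HCl pH 7.5, 50 mM NaCl, 1 mM DTT, 0.05% BSA. Fluorescein-labeled HOX-A9 DNA (50 nM solution) followed, 30 min, then polarization read.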", "values": [{"smiles": "Cc1nc2ccccn2c1C(=O)NN", "Potency": "inconclusive: 14.1 µM [fluorescent, side channel, full curve]"}, {"smiles": "Nc1ccc2c3c(cccc13)C(=O)N(c1ccccc1)C2=O", "Potency": "inconclusive: 4.47 µM [fluorescent, side channel, full curve]"}, {"smiles": "CCOc1ccccc1NC(=O)CCN(c1ccc(C)cc1)S(=O)(=O)c1ccccc1", "Potency": "inconclusive: 10 µM [inhibitor, single point]"}, {"smiles": "CC(=O)NC(CC(=O)N(C)Cc1c(F)cccc1Cl)c1ccccc1", "note": "(stereo unspecified)", "Potency": "inactive"}, {"smiles": "COc1cc(/C=C2\\SC(=Nc3ccccc3)NC2=O)cc(Cl)c1O", "Potency": "inconclusive: 63.1 µM [fluorescent, side channel, single point]"}, {"smiles": "Cc1c(Cl)cccc1NC(=O)CC1Sc2ccccc2NC1=O", "note": "(stereo unspecified)", "Potency": "inconclusive: 89.1 µM [fluorescent, side channel, single point]"}, {"smiles": "O=S(=O)(O)c1ccc2c(N=Nc3ccc(S(=O)(=O)O)c4ccccc34)c(O)c(S(=O)(=O)O)cc2c1", "Potency": "inconclusive: 50.1 µM [quencher, side channel, partial curve]"}, {"smiles": "CCOc1ccc(NC(=O)C2(c3ccc(OC)c(OC)c3)CCCC2)cc1", "Potency": "inconclusive: 11.2 µM [quencher, side channel, single point]"}, {"smiles": "CC(=O)Nc1ccc(/C=N/NC(=O)c2cc(-c3ccco3)nc3ccccc23)cc1", "Potency": "inactive"}, {"smiles": "CCc1ccc2[nH]c(=O)c(CN(CCN(C)C)C(=S)NCc3ccco3)cc2c1", "Potency": "inconclusive: 15.8 µM [inhibitor, full curve]"}, {"smiles": "COc1c2ccoc2nc2c(OC)cccc12", "Potency": "inactive"}, {"smiles": "Cc1ccc(C2/C(=C(/O)c3ccccc3)C(=O)C(=O)N2CCN2CCOCC2)o1", "note": "(stereo unspecified)", "Potency": "inconclusive: 39.8 µM [fluorescent, side channel, partial curve]"}, {"smiles": "Cc1cc(C)nc(NS(=O)(=O)c2ccc(N3C(=O)c4ccccc4C3=O)cc2)n1", "Potency": "inconclusive: 70.8 µM [fluorescent, side channel, single point]"}, {"smiles": "Fc1ccc(COc2ccccc2-c2ccnc3ncnn23)cc1", "Potency": "inconclusive: 1.58 µM [inhibitor, full curve, poor fit]"}, {"smiles": "CCCCc1ccc(-n2nnnc2SCC(=O)Nc2cc(OC)c([N+](=O)[O-])cc2C)cc1", "Potency": "inactive"}, {"smiles": "Cc1ccc(C)c(N2CCN(C(=O)CCCN3C(=S)NC(C)(C)CC3C)CC2)c1", "note": "(stereo unspecified)", "Potency": "inconclusive: 70.8 µM [fluorescent, side channel, single point]"}, {"smiles": "Cc1ccc2nc(-c3ccncc3)cc(C(=O)Nc3ccc(OC(F)F)cc3)c2c1", "Potency": "inconclusive: 11.2 µM [quencher, side channel, full curve]"}, {"smiles": "O=C1CC(c2ccc(F)cc2)Cc2nc(NCc3ccco3)ncc21", "note": "(stereo unspecified)", "Potency": "inactive"}, {"smiles": "COc1cccc2cc(C(=O)C3=C(O)C(=O)N(c4cc(C)on4)C3c3cccs3)oc12", "note": "(stereo unspecified)", "Potency": "inconclusive: 7.94 µM [fluorescent, side channel, full curve, poor fit]"}, {"smiles": "COc1ccc(-c2[nH]ncc2CN2CCC(C(=O)c3ccc(F)cc3)CC2)cc1", "Potency": "inconclusive: 14.1 µM [quencher, side channel, full curve]"}, {"smiles": "Cc1ccc(C(=O)NC2(C(Cl)Cl)N=C(c3ccccc3)N=C2N)cc1", "note": "(stereo unspecified)", "Potency": "inconclusive: 56.2 µM [fluorescent, side channel, single point]"}, {"smiles": "CCc1ccc(C(=O)Nc2nc(C)cs2)s1", "Potency": "inconclusive: 15.8 µM [fluorescent, side channel, single point]"}, {"smiles": "CN(CC(=O)Nc1cccc(F)c1)C(=O)c1ccncc1", "Potency": "inconclusive: 63.1 µM [quencher, side channel, single point]"}, {"smiles": "CCc1nccn1C(=O)c1cnn2c(C(F)F)cc(-c3ccccc3)nc12", "Potency": "inconclusive: 10 µM [quencher, side channel, partial curve]"}, {"smiles": "O=C(NC1CCSc2ccccc21)c1cccc([N+](=O)[O-])c1", "note": "(stereo unspecified)", "Potency": "inconclusive: 56.2 µM [quencher, side channel, single point]"}, {"smiles": "Nc1nnc(CC(=O)N/N=C/c2ccc(-c3cccc(C(=O)O)c3)o2)s1", "Potency": "inactive"}, {"smiles": "COc1ccc2cc(C(=O)N3CCC(Cc4ccccc4)CC3)[nH]c2c1", "Potency": "inconclusive: 11.2 µM [quencher, side channel, full curve]"}, {"smiles": "CCOc1cc(CNc2ccc(N3CCCCC3)cc2)cc(Br)c1OCC(=O)NC(C)(C)C", "Potency": "inactive"}, {"smiles": "Cc1sc2ncnc(Sc3ccccc3C(=O)Nc3ccc(Br)cc3)c2c1C", "Potency": "inconclusive: 15.8 µM [fluorescent, side channel, full curve, poor fit]"}, {"smiles": "O=C(Oc1cccc2cccnc12)c1ccco1", "Potency": "inactive"}, {"smiles": "CCOc1ncccc1C(=O)NCCc1ccc(Cl)cc1", "Potency": "inconclusive: 44.7 µM [inhibitor, single point]"}, {"smiles": "CCCCc1ccc(NC(=O)Nc2c(C)n(C)n(-c3ccccc3)c2=O)cc1", "Potency": "inconclusive: 14.1 µM [fluorescent, side channel, single point]"}, {"smiles": "Cc1ccc(NC(=O)CSc2ccc(C(N)=O)cc2[N+](=O)[O-])cc1C", "Potency": "inactive"}, {"smiles": "O=C(O)c1cc([N+](=O)[O-])c(Sc2nc3ccccc3[nH]2)c([N+](=O)[O-])c1", "Potency": "inactive"}, {"smiles": "CCCCCCCCCCCCC(=O)CCCCC(=O)O", "Potency": "inconclusive: 89.1 µM [inhibitor, single point]"}, {"smiles": "O=c1cc(CSc2nnnn2-c2ccc(O)cc2)nc2sccn12", "Potency": "inconclusive: 35.5 µM [fluorescent, side channel, partial curve]"}, {"smiles": "O=C(/C=C/c1ccco1)Nc1ccc2nc3n(c(=O)c2c1)CCCC3", "Potency": "inconclusive: 31.6 µM [fluorescent, side channel, partial curve]"}, {"smiles": "C(=N\\N1CCN(C2c3ccccc3-c3ccccc32)CC1)/c1cccnc1", "Potency": "inactive"}, {"smiles": "Cc1ccc(/C=C2\\SC(=S)N(CC3CCCO3)C2=O)o1", "note": "(stereo unspecified)", "Potency": "inconclusive: 39.8 µM [fluorescent, side channel, partial curve]"}, {"smiles": "Cc1cc2nc(/C(C#N)=C/c3ccncc3)[nH]c2cc1C", "Potency": "inconclusive: 39.8 µM [fluorescent, side channel, partial curve]"}, {"smiles": "CCCOc1cc(N(CC)CC)ccc1/C=C(/C#N)c1nc2ccc(C)cc2[nH]1", "Potency": "inconclusive: 4.47 µM [fluorescent, side channel, full curve]"}, {"smiles": "CC1CCC(NC(=O)C2CC(=O)N(c3ccc4c(c3)OCCO4)C2)CC1", "note": "(stereo unspecified)", "Potency": "inconclusive: 0.0631 µM [fluorescent, side channel, full curve, poor fit]"}, {"smiles": "O=C(/C=C/Nc1ccc(Br)cc1F)c1ccco1", "Potency": "inconclusive: 39.8 µM [fluorescent, side channel, single point]"}, {"smiles": "Cc1[nH]c2c(C)cccc2c1CCNC(=O)c1ccc2c(c1[N+](=O)[O-])C(=O)c1ccccc1C2=O", "Potency": "inactive"}, {"smiles": "CCOc1ccccc1NC(=O)NCCCCc1ccccc1", "Potency": "inconclusive: 10 µM [fluorescent, side channel, single point]"}, {"smiles": "Cc1ccc(C(=O)NNC2=Nc3cccc4cccc2c34)cc1", "Potency": "inconclusive: 39.8 µM [fluorescent, side channel, single point]"}, {"smiles": "CC1CCCCN1C(=O)c1ccc(NC(=O)c2ccccc2Cl)cc1", "note": "(stereo unspecified)", "Potency": "inactive"}, {"smiles": "OC(COC(c1ccc(F)cc1)c1ccc(F)cc1)CN1CCCC(C(F)(F)F)C1", "note": "(stereo unspecified)", "Potency": "inconclusive: 89.1 µM [inhibitor, single point]"}, {"smiles": "CCN1CCc2nc(NC(=O)CC(c3ccccc3)c3ccccc3)sc2C1", "Potency": "inconclusive: 31.6 µM [quencher, partial curve]"}, {"smiles": "O=C1C=C(N2CCOCC2)c2ccccc2C1=O", "Potency": "inconclusive: 44.7 µM [inhibitor, partial curve]"}, {"smiles": "O=C(N/N=C/c1c[nH]c2ccccc12)c1ccncc1", "activity change, negative = inhibition": "inconclusive: 17.1% [phenotype inactive]"}, {"smiles": "COc1ccc(CN2CCNC(=O)C2CC(=O)NCCSc2nccn2C)c(OC)c1", "note": "(stereo unspecified)", "Potency": "inconclusive: 15.8 µM [inhibitor, single point]"}, {"smiles": "CCOC(=O)C1=NN(C(=O)c2ccc(OC)cc2)C(O)(c2ccc(Cl)cc2)C1", "note": "(stereo unspecified)", "Potency": "inconclusive: 35.5 µM [fluorescent, side channel, single point]"}, {"smiles": "Cn1c(N)c(S(=O)(=O)N2CCN(c3ccccc3Cl)CC2)c(=O)n(C)c1=O", "Potency": "inconclusive: 14.1 µM [fluorescent, side channel, single point]"}, {"smiles": "O=C(NN=C1CCCCCC1)C(=O)Nc1cccc(Br)c1", "Potency": "inconclusive: 14.1 µM [inhibitor, single point]"}, {"smiles": "COc1cc(/C=C2/C(=O)N(c3ccc(C)c(C)c3)N=C2C)cc([N+](=O)[O-])c1O", "Potency": "inconclusive: 35.5 µM [inhibitor, single point]"}, {"smiles": "CC1CCc2sc(C(=O)OCC(=O)NCc3ccc(F)cc3)cc2C1", "note": "(stereo unspecified)", "Potency": "inconclusive: 11.2 µM [fluorescent, side channel, partial curve]"}, {"smiles": "COc1cc(/C=C/c2nc3ccccc3s2)cc(OC)c1O", "Potency": "inconclusive: 22.4 µM [fluorescent, side channel, partial curve]"}, {"smiles": "CCCS(=O)(=O)N1CCCC(C(=O)N2CCN(c3ccccn3)CC2)C1", "note": "(stereo unspecified)", "Potency": "inconclusive: 14.1 µM [inhibitor, single point]"}, {"smiles": "N#C/C(=C\\C=C\\c1ccccc1)C(=O)N1CCCC1", "Potency": "inconclusive: 35.5 µM [inhibitor, single point]"}, {"smiles": "N#Cc1ccccc1OCCCN1CCC(Cc2ccccc2)CC1", "Potency": "inconclusive: 70.8 µM [quencher, side channel, single point]"}]}]}
